Source: patent publication US5807986A (The Salk Institute For Biological Studies, priority 1995, dated 1998)
Some peptides are written in HELM: one residue between dots, names in brackets for other building blocks, links after the first $.

Assay: general procedure: Boc solid-phase peptide synthesis
Conditions: whole synthesis

Row | Substance | final purity (method not given) (capillary zone electrophoresis) | final purity (method not given) (capillary zone electrophoresis (CZE) and RP-HPLC)
1 | PEPTIDE1{C.F.F.[Agl(2-naphthoyl)].K.T.F.C}$PEPTIDE1,PEPTIDE1,1:R3-8:R3$$$V2.0 | greater than 80% pure | 
2 | PEPTIDE1{[ac].[D-2Nal].[D-4Cpa].[Agl(nicotinoyl)].S.[Aph(Ac)].[D-Aph(Ac)].L.[ILys].P.[dA].[am]}$$$$V2.0 |  | 97%-98%
3 | (cyclo 1-8)H-Cys-Phe-Phe-(2-naphthylamido)Gly-Lys-Thr-Phe-Cys-OH | greater than 80% pure | 
